Data as given in PubChem BioAssay AID1259254 (NCATS, 2017)

Test: 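Gene knock-downs that lead to re-replication, shown by excess G2 DNA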 (primary screen)
Cell system: human HCT116 colorectal cancer cells
Knock-down reagent: single siRNA against human genes
Time to read-out: 3 days
Measured: 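Nuclei stained with Hoechst and imaged; cell-cycle phase assigned by DNA content; G2 share scaled per plate, non-targeting siRNA 0%, GMNN siRNA 100%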
Reading the numbers: G2 robust z-score and G2 cells, % of GMNN control: higher = more G2 cells, more excess DNA replication
Rule for the call: 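Active siRNAs have a G2 robust z of 5 or more median absolute deviations over the median, which in these data means about 38% or higher of GMNN control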
Here is one part, drawn at random, of about 59,000 reagents. About 1,550 of them (2.6%) were called active. 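G2 share is only a proxy for re-replication; each gene was hit by three separate siRNAs, and active genes were retested.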 Unmarked entries are inactive. Reagents against one gene are numbered here. Not all columns of the deposit are shown. No sequences are given here. Not stated in the record: the amount of reagent.

For MMP21 #1, the entry reads G2 robust z-score 0.195; G2 cells, % of GMNN control 4.34.
MMP21 #2 showed G2 robust z-score -0.779; G2 cells, % of GMNN control -2.52.
After knock-down of MMP21 #3 the results were G2 robust z-score -0.992; G2 cells, % of GMNN control -4.02.
With knock-down of ASPM #1 the results were G2 robust z-score 0.365; G2 cells, % of GMNN control 5.54.
ASPM #2 gave G2 robust z-score -0.142; G2 cells, % of GMNN control 1.97.
ASPM #3 scored G2 robust z-score -0.159; G2 cells, % of GMNN control 1.85.
For OR14J1 #1, the entry reads G2 robust z-score 0.427; G2 cells, % of GMNN control 5.97.
OR14J1 #2 gave G2 robust z-score -0.731; G2 cells, % of GMNN control -2.18.
Knock-down of OR14J1 #3 gave: G2 robust z-score -0.784; G2 cells, % of GMNN control -2.55.
Against CACNB4 #1, the entry reads G2 robust z-score -0.875; G2 cells, % of GMNN control -3.19.
CACNB4 #2 gave G2 robust z-score -0.619; G2 cells, % of GMNN control -1.39.
Against CACNB4 #3 the deposit lists G2 robust z-score -1.17; G2 cells, % of GMNN control -5.28.

4 entries from above, reformatted:
| gene | reagent | G2 robust z-score | G2 cells, % of GMNN control |
| --- | --- | --- | --- |
| OR14J1 | 3 | -0.784 | -2.55 |
| CACNB4 | 1 | -0.875 | -3.19 |
| CACNB4 | 2 | -0.619 | -1.39 |
| CACNB4 | 3 | -1.17 | -5.28 |

The list goes on.
Against CA13 #1 the deposit lists G2 robust z-score -1.22; G2 cells, % of GMNN control -5.64.
Knock-down of CA13 #2 resulted in: G2 robust z-score 0.481; G2 cells, % of GMNN control 6.35.
After knock-down of CA13 #3, the screen gave G2 robust z-score 0.492; G2 cells, % of GMNN control 6.43.
Depletion of NLE1 #1 gave: G2 robust z-score -0.707; G2 cells, % of GMNN control -2.01.
For NLE1 #2, the values are G2 robust z-score -0.32; G2 cells, % of GMNN control 0.716.
With knock-down of NLE1 #3 the results were G2 robust z-score 1.1; G2 cells, % of GMNN control 10.7.
DIS3 #1 gave G2 robust z-score -0.0407; G2 cells, % of GMNN control 2.68.
Depletion of DIS3 #2 came out at: G2 robust z-score -1.13; G2 cells, % of GMNN control -4.97.
With knock-down of DIS3 #3 the results were G2 robust z-score -0.599; G2 cells, % of GMNN control -1.24.
For SEM1 #1, the entry reads G2 robust z-score -0.244; G2 cells, % of GMNN control 1.25.
Knock-down of SEM1 #2 came out at: G2 robust z-score -0.382; G2 cells, % of GMNN control 0.282.
After knock-down of SEM1 #3 the results were G2 robust z-score 0.0588; G2 cells, % of GMNN control 3.38.
SEM1 #4 gave G2 robust z-score 0.565; G2 cells, % of GMNN control 6.94.
After knock-down of SEM1 #5, the record shows G2 robust z-score -0.979; G2 cells, % of GMNN control -3.92.
Against SEM1 #6, the values are G2 robust z-score 0.156; G2 cells, % of GMNN control 4.06.
